# According to PubChem BioAssay AID1671190 (National Center for Advancing Translational Sciences (NCATS), 2021):
# Sequences of proteins named here, by UniProt entry; tags and fusion partners are left off. A change or cut given only in a name is not applied to a line headed by its entry.
# UniProt P18054: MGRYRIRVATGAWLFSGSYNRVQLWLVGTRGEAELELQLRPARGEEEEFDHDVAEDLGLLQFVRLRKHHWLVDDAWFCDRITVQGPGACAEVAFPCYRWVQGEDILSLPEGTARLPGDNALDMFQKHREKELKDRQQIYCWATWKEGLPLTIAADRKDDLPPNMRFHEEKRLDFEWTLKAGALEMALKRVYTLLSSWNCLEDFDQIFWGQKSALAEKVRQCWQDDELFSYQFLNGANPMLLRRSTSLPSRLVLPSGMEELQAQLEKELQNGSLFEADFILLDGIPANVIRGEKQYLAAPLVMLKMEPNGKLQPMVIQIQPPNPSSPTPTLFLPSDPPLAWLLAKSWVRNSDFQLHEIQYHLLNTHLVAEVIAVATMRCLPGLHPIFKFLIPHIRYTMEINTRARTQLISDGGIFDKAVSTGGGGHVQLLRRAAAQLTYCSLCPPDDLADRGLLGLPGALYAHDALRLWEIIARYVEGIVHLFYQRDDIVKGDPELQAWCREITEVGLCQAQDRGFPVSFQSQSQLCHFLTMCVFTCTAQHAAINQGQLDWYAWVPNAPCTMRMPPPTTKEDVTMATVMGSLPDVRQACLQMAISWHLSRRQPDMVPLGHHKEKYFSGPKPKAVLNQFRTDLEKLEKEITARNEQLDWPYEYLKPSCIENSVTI
# Out of some 580,000 compounds screened, about 6,100 (1.1%) were called active. Inconclusive means that the source gave no clear call. Such entries were picked first, then a sample of the others. The call rests on the fitted dose curve; in most records, active means well fitted inhibition curve with a large enough effect; inconclusive means small, poorly fitted or top-dose-only effect, or another doubt; inactive means no such curve, though single readings can be large or run the other way. Potencies beside an inconclusive call are fits to weak or partial responses and may not hold up.
# Target: Polyunsaturated fatty acid lipoxygenase ALOX12 (Homo sapiens) (UniProt P18054)
# Assay: Primary qHTS assay for inhibitors of human arachidonate 12S-lipoxygenase (ALOX12): Round 2
# Settings: purified 12hLO, xylenol orange hydroperoxide absorbance; activity change, negative = inhibition: at 108 µM (top of the series) unless noted
# Method in brief: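 Purified human 12hLO (150 nM final) in 25 mM Hepes, 0.01% Triton X-100, pH 7.0 was preincubated 15 min at room temperature with compound. Then 40 uM arachidonic acid was added, 30 min. Hydroperoxide was read by Fe-XO absorbance ratio 573/405 nm.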
# On the % scale 0 is the no-effect control and ±100 the full control effect; potency means the concentration at half of the fitted maximal effect.
SMILES,Potency,"activity change, negative = inhibition"
C/C(=N\NC(=S)Nc1cccc(C)c1)c1ccco1,"inconclusive: 50.1 µM [inhibitor, partial curve, poor fit]",
COC(=O)COc1cc(OCC(=O)OC)c2c(-c3ccccc3)cc(=O)oc2c1,,inactive: 0%
C=CCn1c(-c2ccc(S(=O)(=O)N3CCOCC3)cc2)csc1=Nc1ccccc1,,inactive: -23%
CCCNC(=O)CN1CCN(Cc2nc3ccccc3o2)CC1,,inactive: 30.8%
COC(=O)C1(c2ccccc2)NC(c2cccs2)C2C(=O)N(c3ccccc3)C(=O)C21 (stereo not given),,inactive: 420%
Cc1cccc(CNC(=O)CCCN2C(=O)c3cccnc3Oc3ccccc32)c1,"inconclusive: 141 µM [inhibitor, partial curve, poor fit]",
O=[S+]([O-])(C1CC1)N1C2CCC1CN(c1ccc(C(F)(F)F)cc1)C2,,inactive: 3.5% [at 6.33 µM]
C#CCN(Cc1ccc(F)cc1)C(=O)C1CCCN(c2ncccn2)C1 (stereo not given),,inactive: -25.2%
CCOCCCNC(=O)c1ccc(C#N)cc1,,inactive: 16.2%
COc1cccc(NC(=O)CN(C)C(C)C(=O)N2CCCC2)c1 (stereo not given),"inconclusive: 7.08 µM [inhibitor, full curve, poor fit]",
Cc1cc(C)c(O)c(-c2n[nH]c3c2C(c2cccc(O)c2)N(Cc2ccco2)C3=O)c1 (stereo not given),"inconclusive: 56.2 µM [inhibitor, partial curve, poor fit]",
NS(=O)(=O)c1ccc(NC(c2ccccc2)C2CC2)c([N+](=O)[O-])c1 (stereo not given),"inconclusive: 7.08 µM [inhibitor, partial curve, poor fit]",
CCOc1ccc(C(=O)NCCc2sc(-c3cccc(F)c3)nc2C)cc1OCC,,inactive: -29.2%
Cc1ccc(C(CNC(=O)c2cc(-c3cccs3)on2)N2CCOCC2)cc1 (stereo not given),"inconclusive: 1 µM [inhibitor, full curve, poor fit]",
COc1ccc(OC)c(-c2csc(NC(=O)CSc3ccccc3)n2)c1,"inconclusive: 50.1 µM [inhibitor, partial curve, poor fit]",
O=[N+]([O-])c1cc2c(cc1/C=N/n1c(-c3ccccn3)n[nH]c1=S)OCO2,"inconclusive: 5.62 µM [inhibitor, full curve]",
O=C(NC1CCN(Cc2ccccc2)CC1)c1cc2ccccc2[nH]1,"inconclusive: 50.1 µM [inhibitor, partial curve, poor fit]",
Cc1ccc(C(=O)/C=C/C=C/c2cccs2)cc1,"inconclusive: 56.2 µM [inhibitor, partial curve, poor fit]",
Cc1ccc(CNc2nc3ccc(C)cc3n3cnnc23)cc1,,inactive: 0.246%
Cc1ccc(NC(=O)CCCN2C(=O)COc3ccc(C)cc32)c(Cl)c1,"inconclusive: 44.7 µM [inhibitor, partial curve, poor fit]",

# An excerpt of these results, bar-delimited.
SMILES | Potency | activity change, negative = inhibition
Cc1cccc(CNC(=O)CCCN2C(=O)c3cccnc3Oc3ccccc32)c1 | inconclusive: 141 µM [inhibitor, partial curve, poor fit] | 
O=[S+]([O-])(C1CC1)N1C2CCC1CN(c1ccc(C(F)(F)F)cc1)C2 |  | inactive: 3.5% [at 6.33 µM]
